# Source: PubChem BioAssay AID1259354 (Paczesny and Yang Labs, IUPUI and University of Michigan, 2018)
# Sequences of proteins named here, by UniProt entry; tags and fusion partners are left off. A change or cut given only in a name is not applied to a line headed by its entry.
# UniProt Q01638: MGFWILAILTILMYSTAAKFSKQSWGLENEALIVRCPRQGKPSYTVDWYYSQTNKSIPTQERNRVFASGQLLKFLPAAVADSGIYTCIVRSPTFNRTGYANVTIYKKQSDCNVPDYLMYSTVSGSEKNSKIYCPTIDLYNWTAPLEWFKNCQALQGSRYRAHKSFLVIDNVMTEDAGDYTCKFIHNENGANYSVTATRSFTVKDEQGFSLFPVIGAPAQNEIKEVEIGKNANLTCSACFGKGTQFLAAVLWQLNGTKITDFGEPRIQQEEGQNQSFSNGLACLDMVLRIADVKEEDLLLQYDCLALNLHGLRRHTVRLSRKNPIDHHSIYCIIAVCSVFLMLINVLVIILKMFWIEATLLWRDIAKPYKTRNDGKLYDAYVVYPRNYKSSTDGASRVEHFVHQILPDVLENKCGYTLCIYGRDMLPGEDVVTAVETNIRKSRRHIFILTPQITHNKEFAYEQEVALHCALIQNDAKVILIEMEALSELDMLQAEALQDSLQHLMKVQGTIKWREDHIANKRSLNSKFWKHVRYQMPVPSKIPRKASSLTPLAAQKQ
# About 1,800 (2.3%) of roughly 78,000 compounds were called active. This list was built around the results that the source calls inconclusive (neither active nor inactive); the mix of calls is not that of the screen. No stated cut-off is given here; in the data, active means inhibition above about 30%; inconclusive means mostly about 10% to 28%; inactive means weaker than that.
# Molecular target: Interleukin-1 receptor-like 1 (Homo sapiens) (UniProt Q01638)
# Test: blocks human ST2 binding to IL-33, primary screen, biochemical, AlphaLISA (AID 1259354)
# Conditions: AlphaLISA ST2-Fc/biotin-IL-33 interaction, 1 h; at 17 µM, stronger effect = higher value
row,SMILES,inhibition
1,CC1CN(CCNC(=O)C2CCCc3c2[nH]c2ccccc32)Cc2ccccc2O1 (configuration not stated),inactive
2,O=C(Cc1ccc(-c2ccccc2)cc1)NC1CCC(n2cc(C(=O)N3CCCC3)nn2)CC1 (configuration not stated),inconclusive: 14%
3,Fc1ccc(-c2[nH]ncc2CNCCCc2nc3ccccc3[nH]2)cc1,inconclusive: 25%
4,COc1cc([N+](=O)[O-])cc(CN2CCN(c3ccccc3F)CC2)c1O,inactive
5,CC1=C[C@@H](CNC(=O)c2cncnc2)[C@H](C(C)C)C[C@H]1Cc1nnc(-c2ccccc2F)o1,inconclusive: 12%
6,Cn1cc(SCC(=O)Nc2nc3ccccc3s2)c2ccccc21,inconclusive: 17%
7,COc1ccccc1N1CCN(C(=O)c2ccc(C)c(Cl)c2)CC1,inactive
8,CCCc1cc(C(=O)N(Cc2ccncc2)Cc2ccc3c(c2)OCO3)n[nH]1,inconclusive: 14%
9,O=C(Nc1ccc(Br)cc1)c1noc2c1CCCCC2,inactive
10,Cc1ccc(-n2ncc3c(=O)n(-c4ccc(F)c(Cl)c4)c(C)nc32)cc1C,inconclusive: 17%
11,CCOCC(=O)NCCNC(=O)C1COc2ccccc2O1 (configuration not stated),inconclusive: 15%
12,CCSc1nc(CC(=O)NCC2CCS(=O)(=O)C2)cs1 (configuration not stated),inactive
13,CCn1c(C2CCN(C(=O)CCN3CCCO3)CC2)n[nH]c1=O,inactive
14,COc1ccc(NC(=O)c2ccc([N+](=O)[O-])cc2Cl)c(OC)c1,inconclusive: 12%
15,Cn1c2ccc([N+](=O)[O-])cc2c2nc3ccccc3nc21,inconclusive: 16%
16,Cc1cnccc1N1CCN(c2nccc(CCC(F)(F)F)n2)CC1,inconclusive: 10%
17,Cc1cc(C(=O)NCC2(O)CCCNCC2)sc1-c1ccccc1 (configuration not stated),inconclusive: 10%
18,CCC(=O)NCc1nc2ccccc2n1CC(C)C,inconclusive: 13%
19,Cc1cccc(NC(=O)C2C(=O)NNC2c2ccccc2O)c1 (configuration not stated),inactive
20,CCOc1ccc(N2CC(NC(=O)C(CC)CC)CC2=O)cc1 (configuration not stated),inconclusive: 24%
21,O=C(C1CC=CCC1)N1CCc2ccc(NC(=O)C3(c4ccccc4)CC3)cc2C1 (configuration not stated),inconclusive: 14%
22,C=CCn1c(=O)c2c(nc3n2CCN3c2ccccc2)n(C)c1=O,inconclusive: 14%
23,CSCCC(NC(=O)C1CCC(C)CC1)C(=O)NCc1ccco1 (configuration not stated),inconclusive: 11%
24,Cc1ccc(Oc2ncccc2CNC(=O)C(C)N2CCCC2)cn1 (configuration not stated),inactive
25,Nc1c2c(nc3ccccc13)N(c1ccc(Cl)c(Cl)c1)CC2,inconclusive: 11%
26,COc1ccc(CNC(=O)C2CCN(Cc3cc4n(n3)CCCNC4)CC2)cc1,inconclusive: 17%
27,Cc1ccc(N2NC(=O)/C(=C\c3cccc([N+](=O)[O-])c3)C2=O)cc1C,inconclusive: 18%
